Patent US20050009745A1, “TSG101 as inhibitor of HIV production” (priority 2001, published 2005)
At least one peptide structure holds a part that was inferred or is arguable (an end, a ring closure or a residue). Where no end group is shown, it is not given here.

Molecular target: T1, Tsg101 capture by Pr55Gag (Homo sapiens, UniProt Q99816)
T1 construct: anneals at the position corresponding to amino acid 10 in the protein, and 3′ primer no; 30, which anneals to the C-terminus; made in house; host or cells: Tsg101: rabbit reticulocyte lysate (TNT T7 coupled system); Pr55Gag: E. coli BL21-DE3
T1 sequence (Q99816 11-390 limits assumed): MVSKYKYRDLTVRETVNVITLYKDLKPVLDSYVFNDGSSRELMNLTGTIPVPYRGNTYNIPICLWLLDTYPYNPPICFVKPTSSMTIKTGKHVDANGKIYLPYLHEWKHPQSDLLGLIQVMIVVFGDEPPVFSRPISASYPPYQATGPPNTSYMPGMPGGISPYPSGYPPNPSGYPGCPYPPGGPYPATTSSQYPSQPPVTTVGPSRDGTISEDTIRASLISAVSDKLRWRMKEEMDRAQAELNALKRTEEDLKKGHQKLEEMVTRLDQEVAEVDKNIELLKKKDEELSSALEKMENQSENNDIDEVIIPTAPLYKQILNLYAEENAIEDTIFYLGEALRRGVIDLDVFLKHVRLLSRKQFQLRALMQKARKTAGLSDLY
Experiment: Competition immune capture assay: Tsg101 capture by Pr55Gag on antibody-coated Protein A beads
Assay type: binding, HIV-1 Pr55Gag; mouse or human Tsg101
Conditions: 5-fold molar excess of peptide

## ALQSRPEPTAPPEES
  reduction in Tsg101 capture by Pr55Gag: 2.2 fold
